{"source": "patent US7999069B2", "about": "“EphB receptor-binding peptides” (Sanford-Burnham Medical Research Institute, priority 2005, dated 2011)", "key": {"[1]": {"tested_on": "EphB receptors", "assay": "Ephrin-B2 AP binding to different EphB ectodomains in presence of peptide (selectivity)", "settings": "50 μM peptide"}, "[2]": {"molecular_target": "T1, EphB4 (Homo sapiens, UniProt P54760)", "T1 construct": "panned on the ectodomains of EphB1, EphB2, or EphB4 fused to human Fc", "T1 sequence (P54760 16-539 limits assumed)": "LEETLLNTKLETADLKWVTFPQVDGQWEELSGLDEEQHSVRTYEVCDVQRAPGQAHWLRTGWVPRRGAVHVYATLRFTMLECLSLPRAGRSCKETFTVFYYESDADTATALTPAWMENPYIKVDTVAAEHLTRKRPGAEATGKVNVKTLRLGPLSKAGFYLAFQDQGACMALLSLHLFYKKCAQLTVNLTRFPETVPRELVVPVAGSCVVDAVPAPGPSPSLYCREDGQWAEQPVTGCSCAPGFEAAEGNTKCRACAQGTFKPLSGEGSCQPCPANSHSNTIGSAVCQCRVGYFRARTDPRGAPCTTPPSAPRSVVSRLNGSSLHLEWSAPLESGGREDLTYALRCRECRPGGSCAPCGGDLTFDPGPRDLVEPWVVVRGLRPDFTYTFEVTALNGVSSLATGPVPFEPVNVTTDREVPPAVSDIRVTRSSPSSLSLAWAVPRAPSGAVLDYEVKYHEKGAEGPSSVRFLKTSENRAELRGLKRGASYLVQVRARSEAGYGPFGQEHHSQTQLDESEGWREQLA", "assay": "Inhibition of ephrin-B2 AP binding to immobilized EphB4 ectodomain", "experimental": "Peptides that bind to the same receptor region as the ephrins would be expected to inhibit Eph receptor-ephrin association, if they interact with sufficient affinity. A number of synthetic peptides were tested for their ability to inhibit binding of alkaline phosphatase-tagged ephrin-B2 (ephrin-B2-AP) to EphB receptors (FIG. 3). Most of the peptides were synthesized with a biotin tag and immobilized on streptavidin plates to verify their ability to capture the EphB ectodomains used for their isolation.\nEphrin-B2 AP binding to the indicated immobilized EphB receptor ectodomains was measured in the presence of the indicated peptides and detected by measuring alkaline phosphatase activity. […]. […] Wells coated with the different EphB ectodomains were incubated with ephrin-B2 AP and 50 μM of the indicated peptides. Ephrin-B2 AP binding in the presence of peptide was normalized to binding in the absence of peptide. All peptides were biotinylated except for FSPQ and EWYM. […] Therefore, IPWT was not used for further experiments. The EWYM, TWO, and FSPQ peptides were not synthesized with a biotin tag and therefore were tested directly for inhibition of ephrin-B2 binding. The EWLS, SNEW, and TNYL peptides were selective because they antagonized ephrin binding to only one EphB receptor (FIGS. 3B, D, and F).\nThe GP motif aligns with the GP motif of TNYL and the RAW motif aligns precisely next to the last amino acid of TNYL. […] For competition assays between peptides and ephrin-B2 alkaline phosphatase fusion protein (ephrin-B2 AP), the concentration of ephrin-B2 AP used was adjusted to obtain similar signals with different EphB receptors (0.135-1.45 OD min^−1ml^−1). Ephrin-B2 AP was co-incubated for 1 hr with different peptide concentrations in Ni-NTA wells coated with 1 μg/ml Eph receptor Fc. After several washes, the amount of ephrin-B2-AP bound was quantified using p-nitrophenylphosphate as a substrate. Alkaline phosphatase activity from wells without EphB Fc was subtracted as background. […] […]. In these experiments, the two peptides are not biotinylated. […] Ephrin-B2-AP binding in the presence of peptide was normalized to binding in the absence of peptide in (A) and (B). […] Endogenous EphB4 was immunoprecipitated from MCF7 breast cancer cells after stimulation with ephrin-B2 Fc, or Fc as a control, and probed by immunoblotting with anti-phosphotyrosine antibodies (PTyr). […] The filters were reprobed with EphB4 antibodies to confirm equal amounts of immunoprecipitated receptor."}, "[3]": {"tested_on": "EphB receptors", "assay": "Peptide pull-down of endogenous EphB receptors from lysates", "assay_type": "binding", "settings": "peptide on streptavidin beads; mouse brain or cultured cell lysates", "experimental": "The ability of the peptides to bind in a stable manner, which is important for both targeting and competitive inhibition, was tested in pull-down experiments. For peptide pull-down experiments, cells in 60 cm plates at 70% confluency or adult mouse brain tissue were solubilized in pull-down buffer (50 mM HEPES pH 7.5, 150 mM NaCl, 10% glycerol, 1% Triton-X100, 5 mM KCl and 1 mM EDTA). Three μg of biotinylated peptide were incubated for 45-90 min with 5 μl streptavidin agarose beads (Sigma), unbound peptide was washed away, and the beads were incubated with the cell lysates for 45-90 min. Proteins bound to the beads were separated by SDS-polyacrylamide gel electrophoresis and probed by immunoblotting with EphB1, EphB2, or EphB4 antibodies. The EphB1 antibody (Santa Cruz) was detected with a secondary anti-goat IgG peroxidase-conjugated antibody (BioRad Laboratories). The EphB2 and EphB4 antibodies were affinity-purified polyclonal antibodies to GST fusion proteins containing approximately 100 amino acids from the carboxy-terminal tails of the EphB2 or EphB4 receptors (Noren, N. K. et al. 2004 PNAS USA 101:5583-5588; Holash, J. A. & Pasquale, E. B. 1995 Devel Biol 172:683-693) and were detected with a secondary anti-rabbit IgG peroxidase-conjugated antibody (Amersham Biosciences). […]"}}, "note": "At least one peptide structure holds a part that was inferred or is arguable (an end, a ring closure or a residue)."}
{"smiles": "CC[C@H](C)[C@H](NC(=O)[C@@H]1CCCN1C(=O)CNC(=O)[C@H](CC(N)=O)NC(=O)[C@@H]1CCCN1C(=O)[C@H](CO)NC(=O)[C@H](Cc1ccccc1)NC(=O)[C@H](CC(C)C)NC(=O)[C@H](Cc1ccc(O)cc1)NC(=O)[C@H](CC(N)=O)NC(=O)[C@@H](N)[C@@H](C)O)C(=O)N[C@@H](C)C(=O)O", "note": "[SEQ ID NO 24]", "values": [{"measurement": "Selectivity of antagonism of ephrin-B2 AP binding across EphB ectodomains", "setting": "[1]", "result": "selective"}, {"measurement": "Inhibition of ephrin-B2 AP binding to EphB4 (in words)", "setting": "[2]", "result": "inhibited ephrin binding to EphB4"}, {"measurement": "Stable binding of EphB receptors in pull-down", "setting": "[3]", "result": "stably bind EphB receptors"}]}
